Results: doi:10.1101/2020.11.17.386672

T1: HDA15 (endogenous) (Arabidopsis thaliana (endogenous in Col-0)) (UniProt Q8GXJ1)
T1 sequence: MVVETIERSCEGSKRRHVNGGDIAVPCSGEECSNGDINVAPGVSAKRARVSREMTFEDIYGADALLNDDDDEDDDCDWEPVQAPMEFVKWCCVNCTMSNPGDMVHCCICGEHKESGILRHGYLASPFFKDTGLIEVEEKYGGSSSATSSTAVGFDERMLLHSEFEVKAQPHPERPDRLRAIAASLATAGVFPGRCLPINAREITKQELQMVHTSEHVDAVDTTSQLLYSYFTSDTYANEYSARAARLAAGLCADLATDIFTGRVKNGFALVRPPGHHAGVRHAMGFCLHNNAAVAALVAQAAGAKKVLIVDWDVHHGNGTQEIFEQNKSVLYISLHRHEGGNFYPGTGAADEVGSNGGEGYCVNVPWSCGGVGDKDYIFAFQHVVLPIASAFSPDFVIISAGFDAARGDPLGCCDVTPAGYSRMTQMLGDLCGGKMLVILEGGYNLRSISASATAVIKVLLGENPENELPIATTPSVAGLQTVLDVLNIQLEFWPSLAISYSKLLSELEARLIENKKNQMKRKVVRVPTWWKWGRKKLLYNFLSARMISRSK

B1: WRKY63 (protein, UniProt Q9C6H5 1-241)
chain: MFSNIDHKAVAALLHGQGCANILKTVLDNCKVSSVSTEPLINTILDSFSLALSSVNSPNRQPHHESSSRDMAGLVPQRSSKKKICGVKGLEIYRDDSPNPRLDDGFTWRKYGQKTIKTSLYQRCYYRCAYAKDQNCYATKRVQMIQDSPPVYRTTYLGQHTCKAFGVHDNTYGSEMINFDQVVSESVMRQLATIGEQAVLMEDEANHIMNQEYDINDYLVDDEVFWGNEFPLFSSEDLMLF
B2: SU(VAR)3-9-RELATED PROTEIN 5 (SUVR5) (protein, UniProt O64827 1-1382)
chain: MEVKMDELVLDVDVEEATGSELLVKSEPEADLNAVKSSTDLVTVTGPIGKNGEGESSPSEPKWLQQDEPIALWVKWRGKWQAGIRCAKADWPLTTLRGKPTHDRKKYCVIFFPHTKNYSWADMQLVRSINEFPDPIAYKSHKIGLKLVKDLTAARRYIMRKLTVGMFNIVDQFPSEVVSEAARDIIIWKEFAMEATRSTSYHDLGIMLVKLHSMILQRYMDPIWLENSFPLWVQKCNNAVNAESIELLNEEFDNCIKWNEVKSLSESPMQPMLLSEWKTWKHDIAKWFSISRRGVGEIAQPDSKSVFNSDVQASRKRPKLEIRRAETTNATHMESDTSPQGLSAIDSEFFSSRGNTNSPETMKEENPVMNTPENGLDLWDGIVVEAGGSQFMKTKETNGLSHPQDQHINESVLKKPFGSGNKSQQCIAFIESKGRQCVRWANEGDVYCCVHLASRFTTKSMKNEGSPAVEAPMCGGVTVLGTKCKHRSLPGFLYCKKHRPHTGMVKPDDSSSFLVKRKVSEIMSTLETNQCQDLVPFGEPEGPSFEKQEPHGATSFTEMFEHCSQEDNLCIGSCSENSYISCSEFSTKHSLYCEQHLPNWLKRARNGKSRIISKEVFVDLLRGCLSREEKLALHQACDIFYKLFKSVLSLRNSVPMEVQIDWAKTEASRNADAGVGEFLMKLVSNERERLTRIWGFATGADEEDVSLSEYPNRLLAITNTCDDDDDKEKWSFSGFACAICLDSFVRRKLLEIHVEERHHVQFAEKCMLLQCIPCGSHFGDKEQLLVHVQAVHPSECKSLTVASECNLTNGEFSQKPEAGSSQIVVSQNNENTSGVHKFVCKFCGLKFNLLPDLGRHHQAEHMGPSLVGSRGPKKGIRFNTYRMKSGRLSRPNKFKKSLGAVSYRIRNRAGVNMKRRMQGSKSLGTEGNTEAGVSPPLDDSRNFDGVTDAHCSVVSDILLSKVQKAKHRPNNLDILSAARSACCRVSVETSLEAKFGDLPDRIYLKAAKLCGEQGVQVQWHQEGYICSNGCKPVKDPNLLHPLIPRQENDRFGIAVDAGQHSNIELEVDECHCIMEAHHFSKRPFGNTAVLCKDISFGKESVPICVVDDDLWNSEKPYEMPWECFTYVTNSILHPSMDLVKENLQLRCSCRSSVCSPVTCDHVYLFGNDFEDARDIYGKSMRCRFPYDGKQRIILEEGYPVYECNKFCGCSRTCQNRVLQNGIRAKLEVFRTESKGWGLRACEHILRGTFVCEYIGEVLDQQEANKRRNQYGNGDCSYILDIDANINDIGRLMEEELDYAIDATTHGNISRFINHSCSPNLVNHQVIVESMESPLAHIGLYASMDIAAGEEITRDYGRRPVPSEQENEHPCHCKATNCRGLLS
B3: SET DOMAIN PROTEIN 16 (SDG16) (protein, UniProt Q9SUE7 1-1027)
chain: MIIKRKFKTQIPSLERCKLGNESRKKKRKLNLGGGGYYYPLNLLGEIAAGIVPGNGRNGFSASWCTEVTKPVEVEESLSKRRSDSGTVRDSPPAEVSRPPLVRTSRGRIQVLPSRFNDSVLDNWRKDSKSDCDLEEEEIECRNEKVVSFRVPKATNLKSKELDRKSKYSALCKEERFHEQHNDEARARVDEKLPNKKGTFGPENFYSGDLVWAKSGRNEPFWPAIVIDPMTQAPELVLRSCIPDAACVVFFGHSGNENERDYAWVRRGMIFPFVDYVARFQEQPELQGCKPGNFQMALEEAFLADQGFTEKLMHDIHLAAGNSTFDDSFYRWIQETAVSNQELNNNAPRQGLLKKHRNPLACAGCETVISFEMAKKMKDLIPGDQLLCKPCSRLTKSKHICGICKKIRNHLDNKSWVRCDGCKVRIHAECDQISDRHLKDLRETDYYCPTCRAKFNFDLSDSEKQNSKSKVAKGDGQMVLPDKVIVVCAGVEGVYFPRLHLVVCKCGSCGPKKKALSEWERHTGSKSKNWKTSVKVKSSKLALEDWMMNLAELHANATAAKVPKRPSIKQRKQRLLAFLSETYEPVNAKWTTERCAVCRWVEDWDYNKIIICNRCQIAVHQECYGARHVRDFTSWVCKACERPDIKRECCLCPVKGGALKPTDVETLWVHVTCAWFQPEVCFASEEKMEPAVGILSIPSTNFVKICVICKQIHGSCTQCCKCSTYYHAMCASRAGYRMELHCLEKNGQQITKMVSYCAYHRAPNPDNVLIIQTPSGAFSAKSLVQNKKKGGSRLISLIREDDEAPAENTITCDPFSAARCRVFKRKINSKKRIEEEAIPHHTRGPRHHASAAIQTLNTFRHVPEEPKSFSSFRERLHHLQRTEMDRVCFGRSGIHGWGLFARRNIQEGEMVLEYRGEQVRGSIADLREARYRRVGKDCYLFKISEEVVVDATDKGNIARLINHSCTPNCYARIMSVGDEESRIVLIAKANVAVGEELTYDYLFDPDEAEELKVPCLCKAPNCRKFMN
B4: MYB2 (protein, UniProt Q39028 1-273)
chain: MEDYERINSNSPTHEEDSDVRKGPWTEEEDAILVNFVSIHGDARWNHIARSSGLKRTGKSCRLRWLNYLRPDVRRGNITLEEQFMILKLHSLWGNRWSKIAQYLPGRTDNEIKNYWRTRVQKQAKHLRCDVNSNLFKETMRNVWMPRLVERINAQSLPTTCEQVESMITDPSQPVNEPSPVEPGFVQFSQNHHQQFVPATELSATSSNSPAETFSDVRGGVVNGSGYDPSGQTGFGEFNDWGCVGGDNMWTDEESFWFLQDQFCPDTTSYSYN
B5: CELL DIVISION CYCLE5 (CDC5) (protein, UniProt P92948 1-844)
chain: MRIMIKGGVWKNTEDEILKAAVMKYGKNQWARISSLLVRKSAKQCKARWYEWLDPSIKKTEWTREEDEKLLHLAKLLPTQWRTIAPIVGRTPSQCLERYEKLLDAACTKDENYDAADDPRKLRPGEIDPNPEAKPARPDPVDMDEDEKEMLSEARARLANTRGKKAKRKAREKQLEEARRLASLQKRRELKAAGIDGRHRKRKRKGIDYNAEIPFEKRAPAGFYDTADEDRPADQVKFPTTIEELEGKRRADVEAHLRKQDVARNKIAQRQDAPAAILQANKLNDPEVVRKRSKLMLPPPQISDHELEEIAKMGYASDLLAENEELTEGSAATRALLANYSQTPRQGMTPMRTPQRTPAGKGDAIMMEAENLARLRDSQTPLLGGENPELHPSDFTGVTPRKKEIQTPNPMLTPSMTPGGAGLTPRIGLTPSRDGSSFSMTPKGTPFRDELHINEDMDMHESAKLERQRREEARRSLRSGLTGLPQPKNEYQIVAQPPPEESEEPEEKIEEDMSDRIAREKAEEEARQQALLKKRSKVLQRDLPRPPAASLAVIRNSLLSADGDKSSVVPPTPIEVADKMVREELLQLLEHDNAKYPLDDKAEKKKGAKNRTNRSASQVLAIDDFDENELQEADKMIKEEGKFLCVSMGHENKTLDDFVEAHNTCVNDLMYFPTRSAYELSSVAGNADKVAAFQEEMENVRKKMEEDEKKAEHMKAKYKTYTKGHERRAETVWTQIEATLKQAEIGGTEVECFKALKRQEEMAASFRKKNLQEEVIKQKETESKLQTRYGNMLAMVEKAEEIMVGFRAQALKKQEDVEDSHKLKEAKLATGEEEDIAIAMEASA
B6: MAC3B (endogenous) (protein, UniProt O22785 1-525)
chain: MNCAISGEVPVEPVVSTKSGLLFERRLIERHISDYGKCPVTGEPLTIDDIVPIKTGEIIKPKTLHTASIPGLLGTFQNEWDGLMLSNFALEQQLHTARQELSHALYQHDSACRVIARLKKERDEARQLLAEVERHIPAAPEAVTANAALSNGKRAAVDEELGPDAKKLCPGISAEIITELTDCNAALSQKRKKRQIPQTLASIDTLERFTQLSSHPLHKTNKPGICSMDILHSKDVIATGGVDATAVLFDRPSGQILSTLTGHSKKVTSVKFVGDSDLVLTASADKTVRIWRNPGDGNYACGYTLNDHSAEVRAVTVHPTNKYFVSASLDGTWCFYDLSSGSCLAQVSDDSKNVDYTAAAFHPDGLILGTGTSQSVVKIWDVKSQANVAKFDGHTGEVTAISFSENGYFLATAAEDGVRLWDLRKLRNFKSFLSADANSVEFDPSGSYLGIAASDIKVYQTASVKAEWNLIKTLPDLSGTGKATCVKFGSDAQYVAVGSMDRNLRIFGLPGDEKANVDDDSAQDS

Target: T1, HDA15 (endogenous) (Arabidopsis thaliana (endogenous in Col-0))
Test: affinity purification with mass spectrometry

binding, binds:
B1
B2
B3
B4
B5
B6

These are yes or no findings as the source states them, for the method shown. Binding seen in cells or lysates may run through a third protein. A yes stands for co-enrichment or nearness to the bait. Other partners may have been found.
